PubChem BioAssay AID1053208, Peter MacCallum Cancer Centre, 2014
Assay: 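Synthetic lethal interactions between gene loss and doxorubicin in osteosarcoma cells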 (primary screen). Cells: mouse osteosarcoma cells, early-passage culture from an engineered mouse model of fibroblastic bone tumour. Knock-down reagent: siRNA pool against mouse genes, 40 nM. Timing: about 120 h (48 h before drug, then 72 h with drug). Challenge: doxorubicin 100 nM for 72 h, roughly 30-40% inhibitory dose. Detection: 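Viability read as ATP luminescence after 72 h of 100 nM doxorubicin or none, duplicate wells averaged, scaled to non-targeting siRNA, then expressed as robust z-scores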. Direction: viability z-score with doxorubicin and doxorubicin viability vs non-targeting: higher = more viable cells under doxorubicin; viability z-score without drug: higher = more viable cells with knock-down alone; z-score of drug to no-drug ratio: higher = less drug sensitisation by knock-down. Hit rule: 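a pool counts as active when its viability z-score with doxorubicin is -2 or below and its z-score without drug lies between -2 and 2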.
The deposit covers about 17,000 reagents; shown is an unselected part. 788 of all reagents (4.7%) were called active. 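Calls rest on z-score classes alone; an extra cut-off of viability at most 70% of control was not applied to them.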 Entries without a mark were called inactive.

| Gene | combined z-score class | viability z-score with doxorubicin | viability z-score without drug | z-score of drug to no-drug ratio | doxorubicin viability vs non-targeting |
| --- | --- | --- | --- | --- | --- |
| Pou3f3 (GeneID 18993) | no change with or without drug | 0.45 | 1.85 | -0.67 | 0.98 |
| Lrrk1 (GeneID 233328) | no change with or without drug | -0.79 | -1.52 | 0.34 | 0.87 |
| Get3 (GeneID 56495) | no change with or without drug | 0.67 | -0.17 | 0.9 | 1 |
| Ints14 (GeneID 69882) | no change with or without drug | -0.11 | 0.84 | -0.56 | 0.93 |
| Top2b (GeneID 21974) | no change with or without drug | 0.22 | 0 | 0.34 | 0.96 |
| Adam32 (GeneID 353188) | high cell count with doxorubicin only | 2.25 | -0.17 | 2.59 | 1.14 |
| Or8b47 (GeneID 258873) | no change with or without drug | -0.22 | -0.17 | 0 | 0.92 |
| Stub1 (GeneID 56424) | no change with or without drug | 1.12 | 1.18 | 0.45 | 1.04 |
| Ubap1 (GeneID 67123) | no change with or without drug | -0.79 | -1.18 | 0.11 | 0.87 |
| Fv1 (GeneID 14349) | no change with or without drug | 0.22 | 0 | 0.34 | 0.96 |
| Crhr1 (GeneID 12921) | no change with or without drug | 1.12 | 0.84 | 0.67 | 1.04 |
| Skint4 (GeneID 320640) | no change with or without drug | -0.56 | -0.51 | -0.11 | 0.89 |
| Kti12 (GeneID 100087) | no change with or without drug | -0.45 | -0.51 | 0 | 0.9 |
| Gnpda1 (GeneID 26384) | no change with or without drug | -0.22 | -0.84 | 0.45 | 0.92 |
| Nsmf (GeneID 56876) | low cell count with doxorubicin only (active) | -2.36 | -0.84 | -1.91 | 0.73 |
| Itk (GeneID 16428) | no change with or without drug | 0.67 | -0.17 | 0.9 | 1 |
| Uqcrq (GeneID 22272) | no change with or without drug | -0.45 | -1.35 | 0.56 | 0.9 |
| Slc10a1 (GeneID 20493) | no change with or without drug | -1.57 | -1.52 | -0.56 | 0.8 |
| Hibadh (GeneID 58875) | no change with or without drug | 1.69 | 1.85 | 0.56 | 1.09 |
| Mapkapk3 (GeneID 102626) | no change with or without drug | -0.67 | 0.67 | -1.01 | 0.88 |
| Chmp2b (GeneID 68942) | no change with or without drug | 0.22 | -0.51 | 0.67 | 0.96 |
| Tcte2 (GeneID 21646) | no change with or without drug | -0.45 | -0.17 | -0.22 | 0.9 |
| Sp2 (GeneID 78912) | no change with or without drug | 0.67 | 0.51 | 0.45 | 1 |
| Tmem63b (GeneID 224807) | no change with or without drug | 0.22 | 0.84 | -0.22 | 0.96 |
| Tmem161a (GeneID 234371) | no change with or without drug | -1.12 | -0.51 | -0.79 | 0.84 |
| Prdm4 (GeneID 72843) | high cell count with doxorubicin only | 2.02 | 1.69 | 1.01 | 1.12 |
| Actn4 (GeneID 60595) | no change with or without drug | -0.45 | -0.17 | -0.22 | 0.9 |
| Psma3 (GeneID 19167) | low cell count with doxorubicin only (active) | -6.18 | -1.35 | -5.96 | 0.39 |
| Or2ag18 (GeneID 258593) | no change with or without drug | 0 | -0.17 | 0.22 | 0.94 |
| Ppm1m (GeneID 67905) | no change with or without drug | 1.24 | 1.01 | 0.67 | 1.05 |
| Dbt (GeneID 13171) | no change with or without drug | 0.45 | 1.52 | -0.45 | 0.98 |
| Capstert (GeneID 73463) | no change with or without drug | -0.22 | 1.85 | -1.24 | 0.92 |
| Dr1 (GeneID 13486) | no change with or without drug | 0 | -0.34 | 0.34 | 0.94 |
| Got2 (GeneID 14719) | no change with or without drug | 0 | 0.51 | -0.22 | 0.94 |
| Rhbg (GeneID 58176) | no change with or without drug | 0.67 | 0 | 0.79 | 1 |
| Icam1 (GeneID 15894) | no change with or without drug | 0 | -1.01 | 0.9 | 0.94 |
| Stk17b (GeneID 98267) | no change with or without drug | 1.57 | -0.17 | 1.91 | 1.08 |
| Micos13 (GeneID 224904) | low cell count without drug only | 1.24 | -5.56 | 7.98 | 1.05 |
| Fitm2 (GeneID 228859) | no change with or without drug | -0.67 | -0.51 | -0.22 | 0.88 |
| Eif3l (GeneID 223691) | no change with or without drug | -1.12 | 0.17 | -1.12 | 0.84 |
| Gng13 (GeneID 64337) | no change with or without drug | -0.11 | 0.17 | -0.11 | 0.93 |
| Col12a1 (GeneID 12816) | no change with or without drug | -1.46 | -0.51 | -1.12 | 0.81 |
| Pi4k2b (GeneID 67073) | no change with or without drug | 0.67 | -0.17 | 0.9 | 1 |
| Vav2 (GeneID 22325) | no change with or without drug | 0.22 | 0.17 | 0.22 | 0.96 |
| Ccdc80 (GeneID 67896) | no change with or without drug | 0.67 | 1.18 | 0 | 1 |
| P2ry10b (GeneID 213438) | no change with or without drug | 0 | 0 | 0.11 | 0.94 |
| Krtap6-5 (GeneID 68484) | no change with or without drug | -1.8 | -1.18 | -1.01 | 0.78 |
| Tasp1 (GeneID 75812) | no change with or without drug | 0.11 | 0.17 | 0.11 | 0.95 |
| Mfge8 (GeneID 17304) | no change with or without drug | -0.67 | -0.67 | -0.11 | 0.88 |
| Pbx3 (GeneID 18516) | no change with or without drug | 0.67 | -0.51 | 1.24 | 1 |
| Cp (GeneID 12870) | no change with or without drug | -0.9 | -1.01 | -0.11 | 0.86 |
| Mrpl20 (GeneID 66448) | no change with or without drug | 1.12 | 0.51 | 0.9 | 1.04 |
| Pias3 (GeneID 229615) | no change with or without drug | -0.79 | -1.52 | 0.34 | 0.87 |
| Slc35a1 (GeneID 24060) | no change with or without drug | 0.34 | 0.51 | 0.11 | 0.97 |
| Cope (GeneID 59042) | no change with or without drug | -1.35 | -0.51 | -1.01 | 0.82 |
| Impa2 (GeneID 114663) | no change with or without drug | 0.45 | 0.67 | 0.11 | 0.98 |
| Tlx1 (GeneID 21908) | no change with or without drug | -1.8 | -1.52 | -0.79 | 0.78 |
| Gpr75 (GeneID 237716) | no change with or without drug | 0.45 | 0.17 | 0.45 | 0.98 |
| Prss40 (GeneID 21756) | no change with or without drug | 0.45 | 0.17 | 0.45 | 0.98 |
| Tmem51 (GeneID 214359) | no change with or without drug | -1.12 | 0 | -1.12 | 0.84 |
| Kcnj3 (GeneID 16519) | no change with or without drug | -0.67 | 0.34 | -0.79 | 0.88 |
| Vmn1r40 (GeneID 113855) | no change with or without drug | 0.45 | 0.51 | 0.22 | 0.98 |
| Slfn8 (GeneID 276950) | no change with or without drug | -1.12 | -1.85 | 0.22 | 0.84 |
